PubChem BioAssay AID1487 (National Center for Advancing Translational Sciences (NCATS), 2009)
The campaign covered roughly 200,000 compounds. About 25 (0.01%) were called active. Inconclusive means that the source gave no clear call. Such entries were picked first, then a sample of the others. The call rests on the fitted dose curve; in most records, active means well fitted inhibition curve with a large enough effect in the signal ratio, with a control signal flat (not every such curve was filed as active); inconclusive means small, poorly fitted or top-dose-only effect, or effect the other way, or a change in a side signal; inactive means flat fitted curve, though single readings scatter; the % refers to the signal ratio. Potencies beside an inconclusive call are fits to weak or partial responses and may not hold up.

assay: qHTS Assay for Modulators of Lamin A Splicing; details: HeLa LMNA splicing GFP/RFP minigene ratio, 48 h; ratio change, negative = inhibition: at 46.1 µM (top of the series) unless noted
How it was run: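 S3 HeLa cells stably expressing lamin A-EGFP splicing minigene plus DsRed2, 600 cells/well, 48 h compound exposure at 37C. Laser-scanning cytometry; analysed as GFP (500-530 nm)/RFP (575-640 nm) total intensity ratio; 0.5% DMSO vehicle.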
On the % scale 0 is the no-effect control and ±100 the full control effect; potency means the concentration at half of the fitted maximal effect.

Q: Which ratio change, negative = inhibition does the source give for `CCC[n+]1cn(/C(C(=S)Nc2cccc(Cl)c2C)=C(/[O-])c2ccc(OC)c(OC)c2)c2ccccc21` here?
A: inconclusive: -30% [at 46 µM]

Q: For `COc1cccc(NC(=O)c2ccncc2)c1`, which ratio change, negative = inhibition is on record?
A: inconclusive: 13.1%

Q: With `CCOC(=O)COc1c(OC)cc(Cl)cc1C1NC(=O)NC(C)=C1C(C)=O` (stereo unspecified) as the molecule, how does the ratio change, negative = inhibition read?
A: inactive

Q: With `CC(=O)C1=C(c2ccc(Cl)c(Cl)c2)N(C(C)=O)n2c(C)nnc2S1` as the molecule, how does the Potency read?
A: inconclusive: 11.2 µM [falling, single point]

Q: Which ratio change, negative = inhibition does the source give for `C=CCSSSCC=C` here?
A: inconclusive: 7.2%

Q: For `O=[N+]([O-])c1ccc2[nH]c3c(c2c1)CCCC3O` (stereo unspecified), which Potency is on record?
A: inconclusive: 17.8 µM [activator, partial curve]

Q: For `Cc1nc2ccn(Cc3cccs3)c(=O)c2cc1C(=O)NCc1ccccc1`, which ratio change, negative = inhibition is on record?
A: inconclusive: -16.7% [at 46 µM]

Q: Which ratio change, negative = inhibition does the source give for `CC(OC(=O)c1cccs1)C(=O)NCc1ccc2c(c1)OCO2` (stereo unspecified) here?
A: inactive

Q: Which ratio change, negative = inhibition does the source give for `N#Cc1nc(-c2cccs2)oc1NCCCN1CCOCC1` here?
A: inactive

Q: Which ratio change, negative = inhibition does the source give for `COc1ccccc1-n1c([S-])c(C(=O)Nc2ccccc2C(F)(F)F)[n+]2ccc(C(=O)NCCO)cc12` here?
A: inconclusive: 24.3% [at 46 µM]

Q: With `CN(C)/C=C(/C(=O)c1ccccc1)S(=O)(=O)c1ccc(Cl)cc1` as the molecule, how does the ratio change, negative = inhibition read?
A: inconclusive: 24.1% [at 46 µM]

Q: For `CCN(N=Nc1cccc([N+](=O)[O-])c1)c1cccc([N+](=O)[O-])c1`, which ratio change, negative = inhibition is on record?
A: inactive

Q: For `COc1ccc(C2CC(c3ccc4ccccc4c3)=NN2C(=O)COC(=O)C2CCC(=O)N2)cc1` (stereo unspecified), which ratio change, negative = inhibition is on record?
A: inconclusive: -31.8% [at 46 µM]

Q: For `c1ccc(N2CCN(c3ncnc4sc5c(c34)CCC5)CC2)cc1`, which ratio change, negative = inhibition is on record?
A: inconclusive: -11.1%

Q: For `CN(C)c1ccc(-c2cncnc2Nc2ccc(F)cc2)cc1`, which ratio change, negative = inhibition is on record?
A: inconclusive: -4.39%

Q: Which ratio change, negative = inhibition does the source give for `COc1cccc(NC(=O)N2CCC(n3c(C)nc4cccnc43)CC2)c1` here?
A: inactive

Q: For `CC(NC(=O)c1ccc(Br)o1)c1ccccc1` (stereo unspecified), which ratio change, negative = inhibition is on record?
A: inconclusive: 24.1% [at 46 µM]

Q: Which Potency does the source give for `S=C(c1ccc(-c2ccccc2Cl)o1)N1CCCCC1` here?
A: inconclusive: 25.1 µM [falling, single point]

Q: With `Cc1ccc(N(CC(C)C)S(=O)(=O)c2nnc(NC(=O)c3ccco3)s2)cc1` as the molecule, how does the ratio change, negative = inhibition read?
A: inconclusive: 22.1% [at 46 µM]

Q: Which ratio change, negative = inhibition does the source give for `Cc1ccc(CCNC(=O)C2CCC(CNc3c(N4CCC(C)CC4)c(=O)c3=O)CC2)cc1` (stereo unspecified) here?
A: inconclusive: -34%

Q: For `CCOC(=O)c1cc2c(=O)n3ccccc3nc2n(C(C)C)c1=NC(=O)c1c(-c2ccccc2Cl)noc1C`, which ratio change, negative = inhibition is on record?
A: inconclusive: 37.1% [at 9.22 µM]

Q: For `COc1ccc(-c2ccc(NS(=O)(=O)c3cccc(Cl)c3)cc2)nn1`, which ratio change, negative = inhibition is on record?
A: inconclusive: -2.44% [at 46 µM]

Q: Which ratio change, negative = inhibition does the source give for `Cc1ccccc1CNC(=O)c1ccc(Cn2c(SCc3cccc(F)c3)nc3cccnc32)cc1` here?
A: inactive

Q: With `Cc1ccc(-n2ncc3c(N(CCO)Cc4ccccc4)ncnc32)cc1` as the molecule, how does the ratio change, negative = inhibition read?
A: inconclusive: 9.85% [at 46 µM]

Q: For `Cc1ccc(NC(=O)C2(N3CCC3=O)CCCCC2)cc1`, which ratio change, negative = inhibition is on record?
A: inconclusive: 5.13% [at 46 µM]

Q: With `O=C(Cc1csc2nc(-c3ccccc3)cn12)NCc1ccc(F)cc1` as the molecule, how does the ratio change, negative = inhibition read?
A: inconclusive: 0.705% [at 46 µM]

Q: For `CCCn1c(N2CCC(Cc3ccccc3)CC2)nc2c1c(=O)[nH]c(=O)n2C`, which ratio change, negative = inhibition is on record?
A: inconclusive: -11.4%

Q: For `COc1ccc(NC(=O)[C@@H](NC(N)=O)C(C)C)cc1Cl`, which ratio change, negative = inhibition is on record?
A: inconclusive: 4.1% [at 9.22 µM]

Q: Which ratio change, negative = inhibition does the source give for `O=C(Nc1ccc(Cl)c(Cl)c1)OCc1cncs1` here?
A: inactive

Q: With `O=C1c2ccccc2NC(c2ccc(-c3cccc(Cl)c3)o2)N1O` (stereo unspecified) as the molecule, how does the Potency read?
A: inconclusive: 35.5 µM [falling, single point]

Q: With `COc1ccc(NC(=O)CSc2nc3c(c(-c4cccs4)c2C#N)CN(C)CC3)cc1OC` as the molecule, how does the ratio change, negative = inhibition read?
A: inactive

Q: With `CN(C)c1ccccc1C(=O)c1ccccc1N(C)C` as the molecule, how does the ratio change, negative = inhibition read?
A: inconclusive: -21.6%

Q: For `Oc1nc(Nc2cccc(Cl)c2)sc1/C=C1\C=Nc2ccccc21`, which Potency is on record?
A: inconclusive: 25.1 µM [inhibitor, partial curve, poor fit]

Q: For `O=C(O)CCNC(=O)c1ccc(N=Nc2ccc(O)c(C(=O)O)c2)cc1`, which ratio change, negative = inhibition is on record?
A: inconclusive: -33%

Q: For `COc1ccccc1-c1nc(NCc2cccnc2)c2ccccc2n1`, which ratio change, negative = inhibition is on record?
A: inconclusive: -14.6%

Q: With `CC(NC(=O)COC(=O)c1cc(NS(=O)(=O)c2ccc(Cl)c([N+](=O)[O-])c2)ccc1O)C1CC2CCC1C2` (stereo unspecified) as the molecule, how does the Potency read?
A: inconclusive: 11.2 µM [cytotoxic, partial curve]

Q: With `Cc1ccc(Oc2ncnc(N)c2[N+](=O)[O-])cc1` as the molecule, how does the Potency read?
A: inconclusive: 15.8 µM [inhibitor, single point]

Q: Which ratio change, negative = inhibition does the source give for `COc1ccc(N/C=C/C(=O)c2ccc(Cl)cc2)cc1` here?
A: inactive

Q: For `O=C(COc1ccc2ccccc2c1)NC1CC1`, which ratio change, negative = inhibition is on record?
A: inactive

Q: With `CCC(C)NC(=O)c1c(N)n(/N=C/c2ccccn2)c2nc3ccccc3nc12` (stereo unspecified) as the molecule, how does the ratio change, negative = inhibition read?
A: inactive

Q: With `Fc1ccc(-c2noc3ncnc(N4CCCCC4)c23)cc1` as the molecule, how does the ratio change, negative = inhibition read?
A: inconclusive: 28.8% [at 46 µM]

Q: For `O=C(CCC1N=C2c3ccccc3N=C(SCc3cccc(F)c3)N2C1=O)NCc1ccc(F)cc1` (stereo unspecified), which ratio change, negative = inhibition is on record?
A: inactive

Q: Which ratio change, negative = inhibition does the source give for `COc1ccc(S(=O)(=O)NCCc2cn3ccsc3n2)cc1` here?
A: inconclusive: 7.16% [at 46 µM]

Q: Which ratio change, negative = inhibition does the source give for `COc1ccc(-c2c(C(C)=O)c(C)nc3sc4c(c23)NC(c2ccccc2)NC4=O)cc1` (stereo unspecified) here?
A: inactive

Q: For `Cc1nn2c(=O)cc(COC(=O)c3ccc(F)cc3)nc2s1`, which ratio change, negative = inhibition is on record?
A: inactive

Q: With `O=C(CCN1CCN(c2ccccc2)CC1)Nc1ccc(Cl)cc1` as the molecule, how does the Potency read?
A: inconclusive: 35.5 µM [fluorescent, single point]

Q: Which ratio change, negative = inhibition does the source give for `CC(=O)Oc1ccc(C(=O)Nc2cccc(C(=O)c3ccc(C)c(C)c3)c2)cc1` here?
A: inactive

Q: Which ratio change, negative = inhibition does the source give for `O=C(Nc1nnc(SCC(=O)N2CCOCC2)s1)c1ccccc1Cl` here?
A: inactive

Q: For `O=C(Nc1ccccc1C(=O)N1CCOCC1)c1noc2c1CCCC2`, which ratio change, negative = inhibition is on record?
A: inactive

Q: For `CC(Cc1cccs1)NC(=O)Nc1ccc(Cl)cc1` (stereo unspecified), which Potency is on record?
A: inconclusive: 35.5 µM [falling, single point]

Q: With `COc1ccccc1CNC(=O)c1cc(=O)c2ccccc2o1` as the molecule, how does the ratio change, negative = inhibition read?
A: inconclusive: 1.96% [at 46 µM]

Q: With `COc1ccc(Cn2ccc3nc(C)c(C(=O)Nc4ccc(OC)cc4OC)cc3c2=O)cc1` as the molecule, how does the ratio change, negative = inhibition read?
A: inconclusive: 18.8% [at 46 µM]

Q: Which ratio change, negative = inhibition does the source give for `O=C1CN(C(=O)c2ccc(F)c(S(=O)(=O)N3CCOCC3)c2)c2ccccc2N1` here?
A: inconclusive: -2.79% [at 46 µM]

Q: With `COc1ccccc1-c1nnc(SCc2nc3ccccc3s2)n1C` as the molecule, how does the ratio change, negative = inhibition read?
A: inconclusive: 1.17%

Q: For `CCCCNC(=S)Nc1cccc(C(C)=O)c1`, which ratio change, negative = inhibition is on record?
A: inactive

Q: With `CCCCOC(=O)Nc1ccc(S(=O)(=O)Nc2ccc([N+](=O)[O-])cc2)cc1` as the molecule, how does the Potency read?
A: inconclusive: 35.5 µM [falling, single point]

Q: For `CCOC(=O)C1CCCN(C(=O)c2ccc(C)c(NC(=O)c3nsc4ccccc34)c2)C1` (stereo unspecified), which ratio change, negative = inhibition is on record?
A: inconclusive: 1.17% [at 46 µM]

Q: For `O=C(CCNc1ccc(F)cc1)c1ccco1`, which ratio change, negative = inhibition is on record?
A: inconclusive: -30.4%

Q: For `Nc1c(S(=O)(=O)c2ccccc2)c2nc3ccccc3nc2n1/N=C/c1cccc(O)c1`, which Potency is on record?
A: inconclusive: 35.5 µM [fluorescent, single point]

Q: Which ratio change, negative = inhibition does the source give for `N#Cc1nc(-c2ccccc2)oc1N1CCCCC1` here?
A: inconclusive: -7.09%

Q: For `CCN1C(=O)/C(=C2/Sc3ccc(OC)cc3N2C)SC1=Nc1ccc(OC)cc1`, which ratio change, negative = inhibition is on record?
A: inconclusive: 5.42% [at 9.22 µM]

Q: With `CCOc1ccc(C(=O)c2nc3c(n2O)CCCC3)cc1` as the molecule, how does the ratio change, negative = inhibition read?
A: inconclusive: 9.52%

Q: For `O=c1ccn(CCc2c[nH]c3ccccc23)c2c1CCCC2`, which ratio change, negative = inhibition is on record?
A: inactive

Q: Which ratio change, negative = inhibition does the source give for `CCCCc1cc2c(cn1)=C(OC(=O)c1ccc(Cl)nc1)C(C)(OC(=O)CC)C(=O)C=2` (stereo unspecified) here?
A: inactive: 3.79% [at 9.22 µM]

Q: Which ratio change, negative = inhibition does the source give for `Oc1ccccc1CNCCCNCc1ccccc1O` here?
A: inconclusive: -0.658%

Q: For `Cc1ccc(C(CC(=O)N2CCOCC2)c2ccco2)cc1` (stereo unspecified), which ratio change, negative = inhibition is on record?
A: inactive

Q: Which Potency does the source give for `Cc1nc(NC(=O)c2ccc(Cl)cc2)sc1Cc1ccc2c(c1)OCO2` here?
A: inconclusive: 5.01 µM [fluorescent, full curve]

Q: With `Cc1ccc(OCC(=O)Nc2c[nH]c(=O)[nH]c2=O)cc1C` as the molecule, how does the ratio change, negative = inhibition read?
A: inconclusive: -8.61% [at 46 µM]

Q: For `CC1=C(C(=O)Nc2ccc(C)cc2)C(c2cccs2)NC(=S)N1` (stereo unspecified), which ratio change, negative = inhibition is on record?
A: inactive

Q: Which ratio change, negative = inhibition does the source give for `O=C(O)c1ccc(/C=N/NC(=S)NC2CCCCC2)cc1` here?
A: inconclusive: 23.3% [at 46 µM]

Q: For `CCn1cc(CN2CCc3c([nH]c4ccccc34)C2c2ccc(F)c(OC)c2)c(C)n1` (stereo unspecified), which ratio change, negative = inhibition is on record?
A: inconclusive: -17.4% [at 46 µM]

Q: With `CC1CN(S(=O)(=O)c2ccc(-c3nc4ccccc4s3)cc2)CC(C)O1` (stereo unspecified) as the molecule, how does the ratio change, negative = inhibition read?
A: inconclusive: -3.02%

Q: For `CCn1c(-c2ccccc2)csc1=Nc1ccc(O)cc1`, which Potency is on record?
A: inconclusive: 8.91 µM [inhibitor, partial curve, poor fit]

Q: With `O=C(Nc1cccc(C(=O)N2CCN(c3ccccc3)CC2)c1)c1nsc2ccccc12` as the molecule, how does the ratio change, negative = inhibition read?
A: inconclusive: -7.79% [at 46 µM]

Q: Which ratio change, negative = inhibition does the source give for `N#Cc1cccc(-c2cc(-n3ccnc3)ncn2)c1` here?
A: inactive

Q: With `Fc1ccc(-c2csc3ncnc(Cl)c23)cc1` as the molecule, how does the Potency read?
A: inconclusive: 12.6 µM [inhibitor, single point]

Q: With `COc1cccc(CNC(=O)CSc2nc3ccccc3nc2Cc2ccccc2)c1` as the molecule, how does the ratio change, negative = inhibition read?
A: inconclusive: 6.39% [at 46 µM]

Q: For `CCN(CC)S(=O)(=O)c1ccc2nc(NC(=O)c3ccccc3OC)sc2c1`, which ratio change, negative = inhibition is on record?
A: inconclusive: 33.2% [at 46 µM]

Q: With `O=C(N/N=C/c1cccc([N+](=O)[O-])c1)c1cnccn1` as the molecule, how does the ratio change, negative = inhibition read?
A: inactive

Q: Which ratio change, negative = inhibition does the source give for `Cc1cnc([N+](=O)[O-])n1CCOC(=O)NC(=O)c1c(F)cccc1F` here?
A: inconclusive: -12% [at 9.22 µM]

Q: Which ratio change, negative = inhibition does the source give for `CCOCC(=O)Nc1ccc(-c2cn3c(C)csc3n2)cc1` here?
A: inconclusive: -12.7% [at 46 µM]
